Some of these results come from one statement about several compounds together.
Molecular target: T1, human Topo I (Homo sapiens, UniProt P11387)
T1 sequence (P11387 1-765): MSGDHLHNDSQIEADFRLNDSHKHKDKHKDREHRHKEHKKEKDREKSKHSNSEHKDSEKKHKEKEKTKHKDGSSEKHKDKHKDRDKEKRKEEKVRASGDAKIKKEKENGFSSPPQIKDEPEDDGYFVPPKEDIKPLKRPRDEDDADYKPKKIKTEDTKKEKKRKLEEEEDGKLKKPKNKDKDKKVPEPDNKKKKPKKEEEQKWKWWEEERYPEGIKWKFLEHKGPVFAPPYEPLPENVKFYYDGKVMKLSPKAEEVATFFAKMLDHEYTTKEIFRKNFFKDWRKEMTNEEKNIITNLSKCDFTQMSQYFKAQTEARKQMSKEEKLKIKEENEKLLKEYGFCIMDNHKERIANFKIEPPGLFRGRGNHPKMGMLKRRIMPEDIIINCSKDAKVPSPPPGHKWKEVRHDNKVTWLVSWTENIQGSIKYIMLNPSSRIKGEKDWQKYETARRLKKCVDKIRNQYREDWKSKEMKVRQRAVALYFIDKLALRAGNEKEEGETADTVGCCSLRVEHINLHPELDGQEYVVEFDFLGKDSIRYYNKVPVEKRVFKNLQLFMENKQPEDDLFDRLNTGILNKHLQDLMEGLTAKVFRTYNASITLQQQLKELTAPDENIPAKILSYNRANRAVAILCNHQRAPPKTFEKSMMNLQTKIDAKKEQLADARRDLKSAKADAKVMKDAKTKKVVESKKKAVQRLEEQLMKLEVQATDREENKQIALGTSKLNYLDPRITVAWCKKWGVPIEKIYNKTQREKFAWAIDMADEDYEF
Assay: Solid phase topo I HTS assay (His-tag topo I on nickel coated plates, pHOT1 DNA retention by Picogreen fluorescence)
Assay type: biochemical
Design: The intact human topo I gene was cloned as a His-tag gene; purchased TopoGEN, Inc. (Port Orange, Fla.); host or cells: baculovirus-infected Spodoptera frugiperda Sf9 cells
Conditions: test drug about 100 uM, about 1.0 = minus CPT control
Procedure: FIG. 8 is a flowchart depicting the model for solid phase Topo I screening. […] Free enzyme is washed out and pHOT1 supercoiled DNA is added in a topo I assay buffer. […] Free DNA is then washed out and the relative fluorescence is measured using Picogreen staining. […] The results are expressed as an “HTS Ratio” corresponding to the RFU of experimental to RFU of negative controls (no CPT).
The unbound enzyme was removed by aspirating off the initial binding solution followed by three washes (about 200 uL each) with cold PBS containing about 0.05% Tween-20 (PBS-T). […] Drugs were dissolved in DMSO and the final DMSO concentration in the reaction never exceeded about 1%. […] The relative fluorescence was measured at about 485 nm excitation and about 525 nm emission wavelength using a Tecan reader.
In step 5, the readout (relative fluorescent units or RFU retained in the wells) is analyzed based on what is referred to as the ‘HTS Ratio’ (RFU Experimental/RFU in negative control).
Free enzyme is washed out and pHOT1 supercoiled DNA is added in a topo I assay buffer. […] Free DNA is then washed out and the relative fluorescence is measured using Picogreen staining. […] The results are expressed as an “HTS Ratio” corresponding to the RFU of experimental to RFU of negative controls (no CPT).

O=C(c1ccc(OCCN2CCCCC2)cc1)c1c(-c2ccc(O)cc2)sc2cc(O)ccc12 [Raloxifene]
HTS Ratio (RFU experimental / RFU negative control, no CPT): over 2

Reference: patent US20140106342A1, “METHOD OF ASSAYING DNA TOPOISOMERASES AND DNA BINDING PROTEINS USING HIGH THROUGHPUT SCREENING” (priority 2011, published 2014)
